Experimental data as given in the supplement of paper PMC6078165.
The reference is the same well before dosing, and untreated signal decays as well.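 Fibroblast labels denote human fibroblasts, mainly primary ones from uterus (C12385, HUF), lung (H6013), bone (Hs27A), adrenal (HADF) and skin (WS1), plus mammary HMF and breast cancer-associated Hs343T. Cancer cells are basal-like or mesenchymal-like triple-negative breast cancer lines. A hit is a response shift exceeding 3x replicate standard deviation. The tissue of the other fibroblasts is not given here.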

Test system: Hs578T
Assay: relative JC-1 red fluorescence (viability) vs pre-drug, coculture with fibroblast (fraction); higher = more viable cancer cells
Protocol: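 JC-1 labelled TNBC cells cocultured 1:1 (1,500 cells each) with CellTrace Violet stained primary or stromal fibroblasts in 384-well plates in FluoroBrite medium, treated with one of 42 anticancer drugs at 0.1, 1, 10 or 100 uM. JC-1 red fluorescence (mitochondrial integrity in cancer cells only) was read by plate reader every 8 h for 72 h. Values are normalised to each well's pre-drug value. The stock of one drug was tenfold lower, so its dose labels may be too high.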

CO[C@H]1C[C@@H]2CC[C@@H](C)[C@@](O)(O2)C(=O)C(=O)N2CCCC[C@H]2C(=O)O[C@H]([C@H](C)C[C@@H]2CC[C@@H](O)[C@H](OC)C2)CC(=O)[C@H](C)/C=C(\C)[C@@H](O)[C@@H](OC)C(=O)[C@H](C)C[C@H](C)/C=C/C=C/C=C/1C [Rapamycin]
relative JC-1 red fluorescence
Conditions	8 h	16 h	24 h	32 h	40 h	48 h	56 h	64 h	72 h
0.1 µM	0.901	0.81	0.754	0.712	0.653	0.613	0.591	0.549	0.539
1 µM	0.9436	0.887	0.833	0.785	0.707	0.659	0.631	0.591	0.577
10 µM	0.902	0.775	0.663	0.606	0.537	0.521	0.511	0.489	0.495
100 µM	0.91	0.89	0.879	0.791	0.703	0.603	0.562	0.523	0.54

relative JC-1 red fluorescence
Conditions	8 h	16 h	24 h	32 h	40 h	48 h	56 h	64 h	72 h
0.1 µM, coculture fibroblast: C12385	0.788	0.663	0.625	0.549	0.501	0.472	0.443	0.44	0.441
0.1 µM, coculture fibroblast: H6013	0.8447	0.8032	0.757	0.728	0.69	0.676	0.661	0.664	0.642
0.1 µM, coculture fibroblast: H6019	0.743	0.653	0.606	0.524	0.491	0.469	0.452	0.445	0.429
0.1 µM, coculture fibroblast: H6076	0.898	0.823	0.785	0.781	0.733	0.732	0.719	0.72	0.728
0.1 µM, coculture fibroblast: H6231	0.8909	0.7781	0.742	0.711	0.645	0.631	0.598	0.588	0.582
0.1 µM, coculture fibroblast: HADF	0.897	0.805	0.735	0.69	0.65	0.6333	0.61323	0.61	0.601
0.1 µM, coculture fibroblast: HCFa	0.844	0.774	0.733	0.707	0.665	0.657	0.625	0.616	0.582
0.1 µM, coculture fibroblast: HCPF	0.904	0.796	0.741	0.718	0.6531	0.6354	0.6153	0.5945	0.5849
0.1 µM, coculture fibroblast: HHSteC	0.887	0.7951	0.7407	0.693	0.645	0.614	0.601	0.58	0.556
0.1 µM, coculture fibroblast: HMF	0.8865	0.772	0.7239	0.714	0.661	0.638	0.606	0.592	0.584
0.1 µM, coculture fibroblast: HPFa	0.914	0.8135	0.762	0.703	0.655	0.627	0.594	0.579	0.546
0.1 µM, coculture fibroblast: HUF	0.879	0.741	0.714	0.621	0.568	0.536	0.501	0.498	0.488
0.1 µM, coculture fibroblast: Hs27A	0.89033	0.811	0.744	0.69	0.627	0.619	0.593	0.585	0.548
0.1 µM, coculture fibroblast: Hs343T	0.934	0.823	0.761	0.736	0.677	0.65	0.614	0.594	0.595
0.1 µM, coculture fibroblast: WS1	0.8194	0.722	0.672	0.583	0.524	0.511	0.479	0.481	0.484
1 µM, coculture fibroblast: C12385	0.826	0.784	0.75	0.685	0.631	0.613	0.593	0.592	0.594
1 µM, coculture fibroblast: H6013	0.9137	0.899	0.8664	0.8412	0.806	0.804	0.799	0.8	0.788
1 µM, coculture fibroblast: H6019	0.797	0.786	0.809	0.745	0.716	0.703	0.69	0.677	0.666
1 µM, coculture fibroblast: H6076	0.909	0.873	0.85	0.832	0.787	0.773	0.756	0.754	0.749
1 µM, coculture fibroblast: H6231	0.895	0.845	0.818	0.7773	0.72096	0.7015	0.66234	0.6521	0.6488
1 µM, coculture fibroblast: HADF	0.9153	0.894	0.828	0.77	0.721	0.695	0.663	0.657	0.63
1 µM, coculture fibroblast: HCFa	0.8677	0.838	0.772	0.726	0.663	0.642	0.612	0.598	0.565
1 µM, coculture fibroblast: HCPF	0.921	0.872	0.8652	0.8371	0.791	0.7801	0.77	0.7428	0.736
1 µM, coculture fibroblast: HHSteC	0.889	0.85	0.797	0.757	0.705	0.671	0.6444	0.6256	0.596
1 µM, coculture fibroblast: HMF	0.907	0.863	0.805	0.773	0.712	0.683	0.642	0.622	0.607
1 µM, coculture fibroblast: HPFa	0.901	0.865	0.823	0.779	0.75	0.732	0.703	0.688	0.661
1 µM, coculture fibroblast: HUF	0.86	0.791	0.765	0.677	0.613	0.581	0.545	0.534	0.528
1 µM, coculture fibroblast: Hs27A	0.894	0.868	0.835	0.8056	0.7536	0.741	0.713	0.705	0.665
1 µM, coculture fibroblast: Hs343T	0.951	0.886	0.83	0.802	0.736	0.71	0.668	0.645	0.643
1 µM, coculture fibroblast: WS1	0.792	0.738	0.686	0.621	0.573	0.569	0.553	0.558	0.562
10 µM, coculture fibroblast: C12385	0.845	0.818	0.766	0.705	0.6129	0.579	0.549	0.536	0.526
10 µM, coculture fibroblast: H6013	0.896	0.85	0.8119	0.758	0.743	0.767	0.775	0.791	0.774
10 µM, coculture fibroblast: H6019	0.7716	0.643	0.554	0.485	0.495	0.506	0.517	0.537	0.544
10 µM, coculture fibroblast: H6076	0.952	0.829	0.692	0.645	0.569	0.563	0.5533	0.5578	0.5703
10 µM, coculture fibroblast: H6231	0.909	0.892	0.872	0.868	0.814	0.824	0.773	0.779	0.763
10 µM, coculture fibroblast: HADF	0.9698	0.945	0.903	0.893	0.875	0.871	0.854	0.864	0.8632
10 µM, coculture fibroblast: HCFa	0.888	0.818	0.758	0.754	0.758	0.793	0.799	0.806	0.786
10 µM, coculture fibroblast: HCPF	0.919	0.818	0.761	0.736	0.698	0.695	0.714	0.68	0.666
10 µM, coculture fibroblast: HHSteC	0.9753	0.949	0.869	0.793	0.924	0.9135	0.877	0.85	0.811
10 µM, coculture fibroblast: HMF	0.906	0.8184	0.7178	0.674	0.609	0.606	0.593	0.575	0.576
10 µM, coculture fibroblast: HPFa	0.824	0.888	0.862	0.774	0.86	0.875	0.843	0.818	0.773
10 µM, coculture fibroblast: HUF	0.877	0.845	0.894	0.851	0.821	0.803	0.775	0.767	0.75
10 µM, coculture fibroblast: Hs27A	0.964	0.925	0.927	0.921	0.86	0.874	0.895	0.851	0.81
10 µM, coculture fibroblast: Hs343T	0.9968	0.848	0.717	0.653	0.535	0.505	0.453	0.431	0.424
10 µM, coculture fibroblast: WS1	0.825	0.763	0.707	0.614	0.545	0.531	0.497	0.501	0.495
100 µM, coculture fibroblast: C12385	0.891	0.728	0.9186	0.788	0.822	0.652	0.534	0.39	0.356
100 µM, coculture fibroblast: H6013	0.844	0.869	0.821	0.734	0.618	0.544	0.462	0.476	0.485
100 µM, coculture fibroblast: H6019	0.822	0.703	0.667	0.622	0.574	0.487	0.419	0.33	0.27
100 µM, coculture fibroblast: H6076	0.889	0.771	0.827	0.785	0.722	0.708	0.723	0.645	0.644
100 µM, coculture fibroblast: H6231	0.85256	0.831	0.898	0.8	0.875	0.799	0.669	0.625	0.65
100 µM, coculture fibroblast: HADF	0.893	0.922	0.836	0.741	0.656	0.582	0.464	0.483	0.502
100 µM, coculture fibroblast: HCFa	0.874	0.952	0.913	0.792	0.653	0.564	0.472	0.455	0.444
100 µM, coculture fibroblast: HCPF	0.886	0.823	0.772	0.725	0.657	0.609	0.554	0.443	0.3642
100 µM, coculture fibroblast: HHSteC	0.798	0.782	0.693	0.598	0.466	0.415	0.442	0.479	0.476
100 µM, coculture fibroblast: HMF	0.884	0.907	0.893	0.871	0.795	0.737	0.695	0.589	0.564
100 µM, coculture fibroblast: HPFa	0.891	0.894	0.756	0.661	0.666	0.716	0.728	0.742	0.708
100 µM, coculture fibroblast: HUF	0.785	0.778	0.753	0.626	0.567	0.549	0.558	0.579	0.593
100 µM, coculture fibroblast: Hs27A	0.855	0.832	0.755	0.796	0.805	0.7	0.58	0.495	0.502
100 µM, coculture fibroblast: Hs343T	0.878	0.821	0.766	0.699	0.593	0.522	0.467	0.389	0.397
100 µM, coculture fibroblast: WS1	0.794	0.6428	0.5932	0.5323	0.44	0.331	0.247	0.226	0.248
